This note sets out measurements from PMC11036802.

No constants are given. Whether binding was seen depends on the method and setting. In cells and extracts the contact can be indirect. These calls come from enrichment with a bait or labelling near it, and not all partners need be listed. Where a sequence is shown, tags or fusion partners need not be part of it.

The target in test [1] is T1, PfEAF2::GFP (endogenous PfEAF2 tagged with GFP) (P. falciparum (endogenous in 3D7 parasites)) (UniProt C6KTC1).
T1 sequence: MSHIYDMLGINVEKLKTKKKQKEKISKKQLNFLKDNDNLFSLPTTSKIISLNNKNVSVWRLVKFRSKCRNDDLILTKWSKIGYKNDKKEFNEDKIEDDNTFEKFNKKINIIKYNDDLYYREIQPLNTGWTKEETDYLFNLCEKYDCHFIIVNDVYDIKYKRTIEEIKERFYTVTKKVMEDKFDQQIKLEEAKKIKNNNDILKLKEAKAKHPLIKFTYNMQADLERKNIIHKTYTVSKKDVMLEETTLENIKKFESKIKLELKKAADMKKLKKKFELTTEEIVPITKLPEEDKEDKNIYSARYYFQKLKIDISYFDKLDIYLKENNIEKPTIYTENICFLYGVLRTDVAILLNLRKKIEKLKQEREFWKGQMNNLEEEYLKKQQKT
Kind of test: affinity purification with mass spectrometry; single-step pulldown of PfEAF2::GFP with GFP-trap beads from lysates of 10^9 parasites; LC-MS/MS, same SAINT thresholds; three replicates.

Test [2] addresses T2, PfMYST::PTP (endogenous PfMYST with a C-terminal PTP tag) (P. falciparum (endogenous in 3D7 parasites)) (UniProt Q8III2).
T2 sequence: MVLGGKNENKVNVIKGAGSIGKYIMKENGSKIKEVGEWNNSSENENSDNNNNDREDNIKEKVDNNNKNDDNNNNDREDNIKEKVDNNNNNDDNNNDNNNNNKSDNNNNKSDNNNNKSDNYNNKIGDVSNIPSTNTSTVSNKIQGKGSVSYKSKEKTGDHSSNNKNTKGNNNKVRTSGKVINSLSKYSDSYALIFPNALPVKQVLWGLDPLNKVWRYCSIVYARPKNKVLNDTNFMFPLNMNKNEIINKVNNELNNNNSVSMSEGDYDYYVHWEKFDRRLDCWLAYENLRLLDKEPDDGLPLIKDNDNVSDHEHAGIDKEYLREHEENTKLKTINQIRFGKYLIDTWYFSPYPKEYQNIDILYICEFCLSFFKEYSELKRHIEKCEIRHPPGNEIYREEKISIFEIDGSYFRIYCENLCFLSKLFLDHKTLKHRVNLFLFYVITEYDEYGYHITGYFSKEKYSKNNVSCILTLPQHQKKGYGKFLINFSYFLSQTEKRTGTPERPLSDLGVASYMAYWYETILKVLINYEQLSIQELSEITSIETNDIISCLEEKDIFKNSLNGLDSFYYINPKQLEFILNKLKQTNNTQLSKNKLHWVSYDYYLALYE
Briefly: affinity purification with mass spectrometry; tandem affinity purification (IgG agarose beads, TEV protease, anti-protein C beads) of PfMYST::PTP from nuclear extracts of 10^9 asexual blood-stage parasites in PA150 buffer (150 mM KCl, 20 mM Tris-HCl pH 7.7, 3 mM MgCl2, 0.5 mM DTT, 0.1% Tween 20), 4°C; WT 3D7 as control; LC-MS/MS, SAINT probability above 95%, FDR below 1%; three replicates.

B1: PfALP2a (protein, UniProt Q8IIW6 1-499)
chain: MFQNIQTIILDINDGEMKTGYSGECTPRYNSNLILGLPLGHNATLKHTIFPLLPNVKRDNVELLYGIKYIYDENNNSRYDINFDVMEKLFEGISGSKALDDNFQDHPILLTEPNKTDRKYREKFTELMFESYNVYQLFLSRRSVLSCYGCARTSGLVLHVEKNCTNLCGIQEGYVFQKHIEEAPIGGDLIDRIYLSYLENIKNLKIYPYFSIEKNTNNLDNKNYDIKILKCPLVTKSYYLWGSLYVVNQMKENIINDSQNITEKNKNKNNNNNNSDLYEHKNVYKLPDGQIIDDNTTESLKLIFPYIFFRKKYNQNNINKLCTNTEIFQNFDFNEFYNSLKNLKLPILHKYNYKINTTNSIIEKIPDNSLDKTTNICYSDQIDSFFEIFDGLQDFIKKGILSFISSNINIDDVLNFLIITGESTMLHNFVGLLKSYLPFIDTIKEKSTKLIYSKGPDRKCNCFIGASILSSLGTFPQFCMTKSEYEEYGVRNIVDKKCA
As to B1, the binding entry in test [1] and in test [2] was “binds” each time.

B2: PfYNG2 (protein, UniProt Q8IJM3 1-971)
chain: MSDSAQVFMDNVYHLTGYLHRLLFLMKELDKKEHKINIGIERKEEVYLEKLYYAHKNKLENHIKHNYENSNTDSHDSHNEDNNEKKHDISIENVLKKMKKKKKSDLCINHDNHLNNEGDERKNVDKENNNMDMSNEFIKEEEANNIENIKSEGYVQSDEKKIKIKIKQDCIDIKENGNCDDNNNIDDNNNIDDNNYIDDNNIDDDDNNNVDNADNHHGKENKYKKKNSTISHDNDKMDEHANFNHTEENSNDGLYNNVNFKNNIISEGEEESRKEQEKKQNEKNEENEKNEKNEENEKNEENEKNEENEKNEKNEENEKNEENEKNEKNETKEHPTVNPVFNNNDIKQNILKEDEKDIDFLFNDEEMNKYLNEIINDREQCMALLREKICINNQIAYMIKHDYEKLKKQYDKLYTEMEMNGEVLPHMFNSSKNKYTTNEYEEYYNVKNKNIYAIDYHQYEDTYDMVNYMNKTKEEEEEQEEEEEEEEEEEEKEEEKDEYEENDDIEEEEDDDDEDEKEEINKKKKKKKKKKKERHIKDEQNKDKYGKDKNVKDKNVKDKNVKDKNVKDKNVKDKNVKDKNVKDKNVKDKNVKDKIIKEEKEGQNDIHEYESESSKHNIPRKSLSKKHSIKYDDEYIPYISDKVKRYKKHKKNKTQNDEPSSKSNKIGIEKMDGEKNNDEVKNNDEVKNNDVVKNNDEVKNNDVVKNNDEVKNNDDIKNKDDIKNNDDIKNNDDIKNNDEVKNNDEVKNNDDVKNNDNIKNNDDIKNNDDIKNIGEVKSTEGAKKNKESKLHSVKKNEDGNKSKEINQNSDMNKSNEINKNKSYEKIKSKSVDFNKNVLNTEKIKSKSVEYNKNIINTEKAKSKSKSVEINKNSKAINKSKNNDNKNKYKTKNKSKNVNISTDHTNNNNNNNNYKQVIKNCSNIQTNKNNSEENKTTNHAKKNESLSSYTSSLFDINQNEETTLGNLTKNEK
Take B2: the binding entry in test [1] and in test [2] was “binds” throughout.

B3: PfEAF2 (protein, UniProt C6KTC1 1-385)
chain: MSHIYDMLGINVEKLKTKKKQKEKISKKQLNFLKDNDNLFSLPTTSKIISLNNKNVSVWRLVKFRSKCRNDDLILTKWSKIGYKNDKKEFNEDKIEDDNTFEKFNKKINIIKYNDDLYYREIQPLNTGWTKEETDYLFNLCEKYDCHFIIVNDVYDIKYKRTIEEIKERFYTVTKKVMEDKFDQQIKLEEAKKIKNNNDILKLKEAKAKHPLIKFTYNMQADLERKNIIHKTYTVSKKDVMLEETTLENIKKFESKIKLELKKAADMKKLKKKFELTTEEIVPITKLPEEDKEDKNIYSARYYFQKLKIDISYFDKLDIYLKENNIEKPTIYTENICFLYGVLRTDVAILLNLRKKIEKLKQEREFWKGQMNNLEEEYLKKQQKT
As for B3, the binding result in test [2] is recorded as “binds”.

B4: karyopherin-α (PF3D7_0812400) (protein, UniProt Q8IAW0 1-545)
chain: MDRRIEARRKEFKKNCDDTRRKREDLVVQIRKQQRECQLESKRAMVMANIGFEENNTYNLNYAKGNQNDSTNDSIYNTSSNNSSNTLEMLKKIPTLAIGVRSNEYVTQLNSTRELRKLLSIEKGPPIQEVINSGVVPYIVEFLKYDDKTDLQFEAAWVITNIASGSQEQTKVVIDNNAVPHLVRLLSSEKEDVCEQAVWALGNIAGDSAECREYVLNQNSLPLLLKILRTSHKRTLIRNAAWTLSNLCRGKPAPKFEIVSKALPTLAALIYNDDEEILTDACWTLSYLSDGSNENINSVLDAGVAERVVELLSHCSFLVQTPALRTVGNIVTGDDLQTDVVVKLGAVQKLSCLLNSSKKSIKKEACWALSNITAGNISQIQAVIDNNVIPQLINILMKEDFEVRKEAAWAISNASSGGSELQIEYLVECGAIHSLSNLLDVEDANIISVTLEGLENILEMGENKKLRDNLPTNPYVHLFEECDSVHKIDALQDRKVDNICNKAWKILYKYFPFVINNELNNAQIPLNNVFANTEDAVLNKDFTFD
For B4, the binding result in test [2] is “binds”.

B5: PfEAF6 (protein, UniProt C0H4T2 1-104)
chain: MKHKVKRDIMKCKKKLESSIKALEEKILRLELEYHKNCNVNGGNLIKGWESHLRKTPLEPLSFRTFRDDYGDSYVERMLSLTSCTSPATALFPSEDTIREKRKM
As to B5, the binding result in test [1] and in test [2] was “binds” each time.

B6: PfEPL1 (protein, UniProt C0H5C0 1-958)
chain: MTKGGSNHKNNKIKPIDINKKLLIIKCNDDIRKLINKESPSVDEINEIKNLLENNEVKIEKKKRNIVIPRFKICEDSEEEKNIKNKDTINNDEKRKDNINDDEKRKDNINNDAEKNKSLSDDNNNNNNNNNNYDYDNDDEKKYSITKFEKPSHYIRYELYKDQVTGIKLSDGSIIHYDLLKEDEIFLEGLNSYLNIHVNDESFSKLIDKFEKLTGNSDNKEEINFKEALKAASDLKINYKSNVIKDIYTYWKNKRKKLGRPLLRMFWNNSQNSLPHYSVFRPRVKEKMTLRKHKKKNSEIIIKMQELIQDFRRLDRILRKIKQRDEKKLLLLQLNAILFDQRINEIQDKTYVCPMWNYFKDYKIEKIYKKFKKDKYYKNSYHHHYNNNSNNNKYYYDEKEYENYNFDANEDGYVNHNYMDEYMNDNMDEYLNNNIDAHSHYNYRDSIYNRKINKKLKHYIIHPEQKNVLKINPSEYKNVVLIKRRGRSNRMWVDRKYVDENNINNHEINYCDLSYAFNDFVEASLTLKKNYEEDVSNYLSGRTRIPIKLDIRKRDLKNVGDFNTSLFCNNQIHDDSLFNGMYDELNGERKRKRRKKKEQENLNVDENYINSNILLDNMGDQFALQANNNIHLDKTKASLNDNNNNNIIICNNNLDIIQKNSTTNVNVDSSNMNTTNIVTCDRTSITNDHDANNTDIKLNYFINKGNKINMNEPDYNTNLLFHKNNTEENMLNQYIQNKNNLYNINNINNINSNIKINEDNTKMVSHNILSLEHQNLKNQDFYEKYVSTNITNNYNNNNNNNIPYPLVSRNDKYAPCIFSKEQNNKTIFHFEDMIDPLMNKDNYLFCLSKYVYVQKKILFYLEHLLNFDNYNFKSKKKELPNNKDMNINLKINTNDNINNDSLNNDNINKDNINCDDINNKKNDDLINNTLSELNGTCLKSKVSHKSLKHKTAKDNNIK
On to B6, for which the binding result in test [1] and in test [2] was “binds” in each case.

B7: PfARP4 (protein, UniProt Q8ILM5 1-522)
chain: MKLKNDENVNFLCGGEDISSLVVDLGFYSCKIGHNQEDTPRIFLNSICGEREMNDEYENYMDGSLKNINYKELKYPLNLYNRNENIRIKPLFYKDDNKDDIKLNADVFEKILEYSIEGIEIPKVFECTDDIIMDPIKLGGLNLNFEEHPILLTEFNMHNHKIREQMTEILFEKYNIPALYFAKKAKLTSFSLGRSTSLVIDIGYNSLDINPVYEGYVLQKNSLEYNIGGQYFDKLIYEQLIKDNVNIIPYFVYCNGYDNMHTCFNDNINGSIHNNNHNNIGHNNNIDNINHHGNSNTYQENSLENSVNPFYNIHHSYKEECILDVIRYMKESVCRTRIINDDSKCEEKKNSIQNITNLNEQNNIHISNENNIKDACTKEEFFELPDGYKINIHKYKYDIAEHLFHSIPSLNNFKGLPQSIINCIISTDVDIRKELLQSIVITGGSSLFPGLIERLHNSLKEKECFTQSNKFKILNMTSLVEQKYSSWLGGSILASLGTFQQMWVSKKEYHESGHNIILDRCF
On to B7, for which the binding result in test [1] and in test [2] was “binds” in each case.
